Measurements as given in PubChem BioAssay AID1508600 (Functional Genomics Laboratory (NCATS/FGL), 2020).
Among all 53,000 sequences or so, about 3,700 (7%) were called active.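 The calls were made as follows: active = gene knockdowns whose robust z-score for IL-1 alpha signal is at least 2 or at most -2, so actives lie on both sides; inactive = the rest.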 The list shows a part of the results.

Assay: Components of the Cytosolic LPS Sensing Pathway: Gene Identification via Genome-wide siRNA Screen;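 also: robust z of the log signal after scaling to non-targeting control siRNA wells of the plate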
Conditions: RAW264.7 macrophages, IL-1a HTRF, actives lie on both sides, screened at 100 nM (by protocol), cells primed 5 h with Pam3CSK4 first
Outline: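 Read-out: IL-1a HTRF on supernatant, divided by plate negative-control median ×100, log-transformed and converted to robust z-score. Cells were RAW264.7 given 100 nM siRNA, Pam3CSK4-primed 5 hours, then LipidA-transfected 24 hour.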

| Sequence | z-score |
| --- | --- |
| CGGGAAGCUAUCAUCAAAATT against Rgs13 | inactive: 0.12 |
| CGAAAUUUACAGGAGAUCCTT against Nup93 | inactive: 0.0497 |
| GGAAUACUGCUACAAAUGATT against Vav1 | inactive: -0.95 |
| GGUGGCUUCAGUAAGUUCCTT against Dusp6 | inactive: 0.766 |
| GCAUCCACUAUGGAGAAACTT against Ect2 | inactive: -1.25 |
| GGUUGUAAAGGAAGAGAAGTT against Lyve1 | inactive: 0.397 |
| GGAAUCAUAUCAGAAACUATT against Pde4b | inactive: -0.475 |
| CCCACUUCUCAGAUGAAAUTT against Tut4 | inactive: -1.33 |
| GCCAGUCCAAAGCUUCAAATT against Eif3b | inactive: 0.378 |
| GGCCAUCUUUGUUUAAAACTT against Ttc5 | inactive: -0.0587 |
| GGACGUGUGCCAGACUAAATT against Egfl6 | inactive: 1.41 |
| GGUCUCAUAUCCUCUUUGGTT against Pex11a | inactive: -1.87 |
| GGAUUAUGAUCCAGAAUUCTT against Omd | active: 2.96 |
| GGAACAGGUACUAGAAGUATT against Armh3 | inactive: 1.69 |
| GCCUUGGAUGAAAAGGUAATT against Ppfia2 | inactive: -1.46 |
| GGUGGUAUCGGUUUUCUACTT against Olfr1509 | inactive: 0.996 |
| GGCCGGCCAGAUAAAGAAATT against Cavin1 | inactive: 0.683 |
| GGCAAGAAUCAAGGAGAGATT against Nek1 | inactive: -1.27 |
| GGGAUCCAUCCUCAUCUCATT against Oas1h | inactive: 1.68 |
| CCCAGUAUGGUCCAUGAAGTT against Zfp821 | inactive: -1.61 |
| GGUCAGAUGUGGAGAAAGGTT against Ufd1 | inactive: -0.628 |
| GGCGAGCAUCGCUAUUGACTT against Zcrb1 | inactive: 0.734 |
| GCCUAGGGAGGUGUAGAAUTT against Marveld1 | inactive: 0.486 |

| Sequence | z-score |
| --- | --- |
| GCUCCUAAAAGAACAGUCGTT against Cog3 | inactive: -0.275 |
| GAAUUUUUCAGCUCUGUUUTT against Tas2r117 | inactive: -1.04 |
| GGAUUUCUACCAGCUCGUGTT against Pop5 | inactive: 1.62 |
| GGUUCAUGGAGAAGAAUCUTT against Ankzf1 | inactive: 0.153 |
| GGAUCUUUUCGUGUCCUGCTT against Pik3ap1 | inactive: -0.78 |
| CCCAUGGGAAGUUCAUCUCTT against Olfr123 | inactive: 0.275 |
| GGUCACAAAGAAGAAUCACTT against Heg1 | active: -2.31 |
| CGGUACCUUGUACAUGGUUTT against Ptprn2 | inactive: -0.0955 |
| GGAACAUCUGCAUCUGGAUTT against Adi1 | inactive: -0.36 |
| GGUCAAUGCUGUUAAGAAATT against Sart1 | inactive: -1.84 |
| CCCAUACUAUGCCAGGACATT against Foxi2 | inactive: 1.43 |
| GGAUGAAAACACUGAAUACTT against Olfr644 | inactive: -0.714 |
| GCCACCUCCUACCAAAUGUTT against Sprr4 | inactive: -1 |
| UUGGAGAGAAGCCUAUAACTT against 4930451I11Rik | inactive: 0.231 |
| CCAUGGUAGUUAAAAAUGUTT against Rbm25 | inactive: -0.461 |
| GGAGAAAGAUGAAGUCUUUTT against Sav1 | inactive: -1.62 |
| GGUUAUAAAACUAUGGAACTT against Map2k5 | inactive: 0.133 |
| GGUGCUGCUAGUGAACAAGTT against E2f4 | active: 5.64 |
| GGAGAUGCAUACCAAAGAUTT against Cdrt4 | inactive: 0.582 |
| GGAUGACGGUGUCAUGUGCTT against Nlrc3 | inactive: -0.3 |
| GCCAACCAGCAUUUUUGACTT against Lypd6b | inactive: 0.0427 |
| CGAUUUUUUUGCCCUCCUCTT against Rbpj | inactive: 0.487 |
| GAGUUGUCCUCUUCACCAUTT against Olfr483 | inactive: -1.52 |

Five records drawn at random from the list so far, as already listed:

| Sequence | z-score |
| --- | --- |
| GGAGAAAGAUGAAGUCUUUTT against Sav1 | inactive: -1.62 |
| CGAUUUUUUUGCCCUCCUCTT against Rbpj | inactive: 0.487 |
| GGUGCUGCUAGUGAACAAGTT against E2f4 | active: 5.64 |
| CCCAUGGGAAGUUCAUCUCTT against Olfr123 | inactive: 0.275 |
| GGUUCAUGGAGAAGAAUCUTT against Ankzf1 | inactive: 0.153 |

Continued:

| Sequence | z-score |
| --- | --- |
| GGUGAAUUGAAGCAGUCCUTT against Ptgdr2 | inactive: 0.282 |
| GGUUGAGUGGCAUUUUUUATT against Ice1 | inactive: -0.822 |
| GCGUGAGGAUGUAGACUACTT against Mmp12 | inactive: 0.699 |
| GGGUGUAAGACUGUGUUUGTT against Enox1 | inactive: 0.95 |
| GGAGAAAUCAAACACAAGUTT against Slco5a1 | inactive: 1.4 |
| GCUAUGGGACUUAGGAAGGTT against Paqr6 | inactive: 0.74 |
| GCAGAGCAUGCCUUACUGUTT against Eif4ebp1 | active: 4.39 |
| CGGUACAAAUGAUUUCUGATT against Pcolce2 | active: 2.04 |
| GGCACUUUGUUUAGGCAAATT against Tcstv1 | inactive: -1.51 |
| AAACCUGUCGUAAAAGCUGTT against Mt4 | inactive: 1.64 |
| GCUGUACACAAGUUGACCCTT against Fndc3a | inactive: 0.526 |
| GGUCCUGACACAUUCUUACTT against Olfr571 | inactive: -0.0548 |
| GCCCAGAGUUACGAGUAUGTT against Aacs | active: 2.23 |
| GGAAAGGUAUGAGUGAAGATT against Ifi205 | inactive: -0.538 |
| GGAGAAAGUGUCCUCUGUGTT against Olfr924 | active: -2.41 |
| GCAUGGUUUAAUGGCUCGGTT against Atpsckmt | inactive: -1.93 |
| GGAAAGGAACUAGCAACGATT against Art3 | inactive: -0.642 |
| CCCACUCUGUUCAGAGAGUTT against Bud23 | inactive: -0.645 |
| GCAUACUUGUUUUAGCUAATT against Ier3ip1 | inactive: -1.02 |
| GCAGCUAGCAACAUAGUAUTT against Bud23 | inactive: 1.48 |
| GGGACACAAAGACACCGUGTT against Ift122 | inactive: 1.04 |
| GGCAUUUUGAAAACAAGGUTT against Cox7a2 | inactive: -0.473 |
| GGCCUUGUUUUCAUGCCUGTT against Acsm2 | inactive: -0.179 |
